Test results as given in publication PMC10853178.
Results are given in words; binding and its absence hold for the method and conditions named. In cells and extracts the contact can be indirect. Some results given as binding are weak or reduced against the parent protein; the word gives no strength.

How the values were obtained:
[1] = target: T1, gasdermin E (GSDME), exogenous, in 293T cells (UniProt O60443); assay: co-IP; 293T cells 48 h after transfection; lysis in 50 mM Tris-HCl pH 7.4, 150 mM sodium chloride, 5% glycerol, 1% IGEPAL CA-630; anti-Flag or anti-HA antibody with protein G, anti-IgG as control; 6 washes
T1 sequence: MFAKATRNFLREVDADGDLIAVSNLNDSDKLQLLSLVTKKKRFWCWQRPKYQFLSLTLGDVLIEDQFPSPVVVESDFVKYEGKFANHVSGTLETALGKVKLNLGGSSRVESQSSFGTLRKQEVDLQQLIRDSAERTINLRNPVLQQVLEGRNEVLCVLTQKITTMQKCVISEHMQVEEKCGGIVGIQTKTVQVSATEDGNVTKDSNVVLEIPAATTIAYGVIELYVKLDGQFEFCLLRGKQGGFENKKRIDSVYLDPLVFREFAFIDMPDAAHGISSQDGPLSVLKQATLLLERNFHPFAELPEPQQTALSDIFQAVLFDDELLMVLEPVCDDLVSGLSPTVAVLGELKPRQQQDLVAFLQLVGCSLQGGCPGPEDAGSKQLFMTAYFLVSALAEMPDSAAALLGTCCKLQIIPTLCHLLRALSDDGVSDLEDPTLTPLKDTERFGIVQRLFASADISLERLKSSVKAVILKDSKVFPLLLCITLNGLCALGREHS

[2] = target: T1, gasdermin E (GSDME), exogenous, in 293T cells; assay: proximity ligation; in situ PLA in 293T cells, Duolink In Situ Detection Reagents Red kit; Flag and HA primary antibodies overnight at 4 °C

B1: Tumor necrosis factor superfamily member 15 (TNFSF15), exogenous, in 293T cells (protein, UniProt O95150 1-251)
chain: MAEDLGLSFGETASVEMLPEHGSCRPKARSSSARWALTCCLVLLPFLAGLTTYLLVSQLRAQGEACVQFQALKGQEFAPSHQQVYAPLRADGDKPRAHLTVVRQTPTQHFKNQFPALHWEHELGLAFTKNRMNYTNKFLLIPESGDYFIYSQVTFRGMTSECSEIRQAGRPNKPDSITVVITKVTDSYPEPTQLLMGTKSVCEVGSNWFQPIYLGAMFSLQEGDKLMVNVSDISLVDYTKEDKTFFGAFLL
binding [1]: binds
binding [2]: binds
